# Measurements taken from the supplement of paper PMC10849652.
# Protein sequences, listed by entry. Tags and fused reporters are not part of them. Lines headed by an entry give the natural chain unless they say otherwise; changes in a name come on top.
# UniProt Q9H7F4: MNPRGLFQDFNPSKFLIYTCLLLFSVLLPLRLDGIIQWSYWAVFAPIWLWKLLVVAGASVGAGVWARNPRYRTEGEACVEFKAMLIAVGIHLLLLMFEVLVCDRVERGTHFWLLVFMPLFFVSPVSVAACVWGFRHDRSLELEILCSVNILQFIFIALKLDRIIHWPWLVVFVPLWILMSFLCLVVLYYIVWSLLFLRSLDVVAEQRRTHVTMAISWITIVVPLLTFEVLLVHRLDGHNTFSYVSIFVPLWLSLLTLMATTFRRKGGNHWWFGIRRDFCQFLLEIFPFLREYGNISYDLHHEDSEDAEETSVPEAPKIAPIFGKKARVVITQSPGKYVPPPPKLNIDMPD
# UniProt Q5T3F8: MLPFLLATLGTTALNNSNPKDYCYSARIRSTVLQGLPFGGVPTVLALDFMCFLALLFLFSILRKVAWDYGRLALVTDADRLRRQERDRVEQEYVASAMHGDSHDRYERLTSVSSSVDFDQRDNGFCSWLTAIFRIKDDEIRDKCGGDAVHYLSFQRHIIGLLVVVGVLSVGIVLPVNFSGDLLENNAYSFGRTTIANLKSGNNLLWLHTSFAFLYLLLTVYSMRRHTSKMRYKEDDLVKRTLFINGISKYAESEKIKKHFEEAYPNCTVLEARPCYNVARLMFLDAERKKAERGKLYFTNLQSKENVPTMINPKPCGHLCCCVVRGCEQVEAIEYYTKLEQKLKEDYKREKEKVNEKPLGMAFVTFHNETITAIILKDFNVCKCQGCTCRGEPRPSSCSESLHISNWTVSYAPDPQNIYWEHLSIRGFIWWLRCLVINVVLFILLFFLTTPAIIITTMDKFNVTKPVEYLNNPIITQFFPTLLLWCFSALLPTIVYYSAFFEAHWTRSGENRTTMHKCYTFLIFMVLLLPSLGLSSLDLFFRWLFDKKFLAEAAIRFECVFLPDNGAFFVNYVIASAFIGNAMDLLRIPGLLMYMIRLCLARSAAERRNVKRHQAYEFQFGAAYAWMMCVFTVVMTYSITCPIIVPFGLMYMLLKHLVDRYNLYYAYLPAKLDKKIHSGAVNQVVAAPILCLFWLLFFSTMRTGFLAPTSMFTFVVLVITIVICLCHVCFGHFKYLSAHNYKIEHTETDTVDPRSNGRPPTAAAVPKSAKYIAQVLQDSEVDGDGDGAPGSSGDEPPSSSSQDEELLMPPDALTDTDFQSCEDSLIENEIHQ
# UniProt Q9NX61: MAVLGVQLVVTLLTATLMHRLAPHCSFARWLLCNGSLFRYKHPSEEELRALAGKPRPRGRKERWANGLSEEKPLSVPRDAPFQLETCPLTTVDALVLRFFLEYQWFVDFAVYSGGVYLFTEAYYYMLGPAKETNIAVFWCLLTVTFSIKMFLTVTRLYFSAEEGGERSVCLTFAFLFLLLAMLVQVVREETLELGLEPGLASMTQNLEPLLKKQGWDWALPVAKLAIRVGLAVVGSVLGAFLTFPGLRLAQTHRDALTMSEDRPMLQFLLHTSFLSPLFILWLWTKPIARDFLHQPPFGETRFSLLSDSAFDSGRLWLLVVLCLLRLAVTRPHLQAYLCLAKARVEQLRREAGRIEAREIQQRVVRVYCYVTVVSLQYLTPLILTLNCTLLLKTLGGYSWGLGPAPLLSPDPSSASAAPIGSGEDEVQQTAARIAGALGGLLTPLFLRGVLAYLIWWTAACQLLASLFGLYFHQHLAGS
# UniProt Q6PI78: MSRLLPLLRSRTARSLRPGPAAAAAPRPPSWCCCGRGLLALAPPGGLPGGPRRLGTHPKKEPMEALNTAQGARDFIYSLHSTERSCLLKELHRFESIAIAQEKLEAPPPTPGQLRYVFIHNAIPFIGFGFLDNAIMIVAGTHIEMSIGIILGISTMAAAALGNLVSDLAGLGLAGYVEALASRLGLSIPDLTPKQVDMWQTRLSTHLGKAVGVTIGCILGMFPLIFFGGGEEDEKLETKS
# UniProt Q9HD45: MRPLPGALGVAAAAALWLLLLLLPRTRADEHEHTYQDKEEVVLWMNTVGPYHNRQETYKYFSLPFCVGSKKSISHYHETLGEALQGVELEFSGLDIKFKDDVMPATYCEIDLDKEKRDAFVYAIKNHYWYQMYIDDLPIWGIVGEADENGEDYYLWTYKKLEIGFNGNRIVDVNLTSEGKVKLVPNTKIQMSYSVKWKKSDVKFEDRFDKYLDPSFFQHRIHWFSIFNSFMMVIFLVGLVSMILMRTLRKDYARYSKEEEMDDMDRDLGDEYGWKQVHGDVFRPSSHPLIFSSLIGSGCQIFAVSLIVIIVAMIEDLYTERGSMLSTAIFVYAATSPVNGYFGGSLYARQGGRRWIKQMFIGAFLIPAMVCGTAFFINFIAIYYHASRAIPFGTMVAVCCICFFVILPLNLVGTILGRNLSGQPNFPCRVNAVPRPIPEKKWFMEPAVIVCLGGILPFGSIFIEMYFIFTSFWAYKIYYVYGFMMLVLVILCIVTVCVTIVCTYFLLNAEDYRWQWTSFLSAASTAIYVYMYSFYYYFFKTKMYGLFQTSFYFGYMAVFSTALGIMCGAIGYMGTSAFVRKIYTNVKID
# UniProt Q9NVV0: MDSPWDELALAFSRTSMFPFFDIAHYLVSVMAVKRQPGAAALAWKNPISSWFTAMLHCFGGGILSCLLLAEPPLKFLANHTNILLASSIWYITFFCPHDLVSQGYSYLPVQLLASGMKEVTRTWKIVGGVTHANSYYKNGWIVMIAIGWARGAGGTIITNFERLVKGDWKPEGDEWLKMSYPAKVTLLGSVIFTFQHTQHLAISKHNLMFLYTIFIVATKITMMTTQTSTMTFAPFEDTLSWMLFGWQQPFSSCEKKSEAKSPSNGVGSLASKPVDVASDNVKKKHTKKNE
# UniProt P42167: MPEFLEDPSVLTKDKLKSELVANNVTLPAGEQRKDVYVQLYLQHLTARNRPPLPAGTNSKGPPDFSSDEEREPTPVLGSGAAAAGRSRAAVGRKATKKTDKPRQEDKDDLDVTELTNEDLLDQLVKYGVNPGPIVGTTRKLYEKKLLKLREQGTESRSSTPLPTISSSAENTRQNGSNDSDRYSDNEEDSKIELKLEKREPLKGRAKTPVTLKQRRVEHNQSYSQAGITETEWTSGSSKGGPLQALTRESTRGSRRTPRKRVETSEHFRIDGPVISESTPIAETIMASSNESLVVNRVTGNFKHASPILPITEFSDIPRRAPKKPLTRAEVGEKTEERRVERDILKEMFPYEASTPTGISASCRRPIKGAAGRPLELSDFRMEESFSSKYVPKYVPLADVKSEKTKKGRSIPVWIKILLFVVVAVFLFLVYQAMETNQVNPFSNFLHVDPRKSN
# UniProt Q9H3N1: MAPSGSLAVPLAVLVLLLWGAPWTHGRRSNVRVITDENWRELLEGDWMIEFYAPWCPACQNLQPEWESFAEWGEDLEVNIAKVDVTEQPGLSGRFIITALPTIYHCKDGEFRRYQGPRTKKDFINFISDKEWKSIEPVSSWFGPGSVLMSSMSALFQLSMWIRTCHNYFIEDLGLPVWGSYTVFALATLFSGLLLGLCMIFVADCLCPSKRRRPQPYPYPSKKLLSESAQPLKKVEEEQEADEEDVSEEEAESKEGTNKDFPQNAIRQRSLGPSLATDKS
# UniProt Q9NZR1: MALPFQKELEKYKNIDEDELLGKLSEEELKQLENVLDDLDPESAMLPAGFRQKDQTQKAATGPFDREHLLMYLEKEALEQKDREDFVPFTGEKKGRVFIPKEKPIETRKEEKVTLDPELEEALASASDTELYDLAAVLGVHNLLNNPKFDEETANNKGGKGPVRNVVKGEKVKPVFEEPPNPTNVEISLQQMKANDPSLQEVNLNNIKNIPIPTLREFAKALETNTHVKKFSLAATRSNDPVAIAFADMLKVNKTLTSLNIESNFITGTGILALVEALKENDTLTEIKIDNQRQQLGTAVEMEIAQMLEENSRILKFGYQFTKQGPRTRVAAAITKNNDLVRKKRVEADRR
# UniProt Q8NDZ6: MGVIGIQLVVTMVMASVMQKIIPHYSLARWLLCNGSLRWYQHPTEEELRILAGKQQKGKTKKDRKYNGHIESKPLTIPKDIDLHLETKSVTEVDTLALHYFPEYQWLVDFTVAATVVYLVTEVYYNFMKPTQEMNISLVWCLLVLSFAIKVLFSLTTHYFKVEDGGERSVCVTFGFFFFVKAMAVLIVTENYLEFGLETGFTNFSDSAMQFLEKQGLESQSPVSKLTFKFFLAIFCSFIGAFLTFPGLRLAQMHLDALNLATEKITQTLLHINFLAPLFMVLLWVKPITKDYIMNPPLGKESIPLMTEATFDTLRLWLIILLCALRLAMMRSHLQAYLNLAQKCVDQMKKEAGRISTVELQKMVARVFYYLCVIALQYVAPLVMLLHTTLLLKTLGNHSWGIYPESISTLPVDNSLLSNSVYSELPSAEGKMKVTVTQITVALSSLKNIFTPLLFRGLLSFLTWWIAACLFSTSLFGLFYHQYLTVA
# UniProt Q15363: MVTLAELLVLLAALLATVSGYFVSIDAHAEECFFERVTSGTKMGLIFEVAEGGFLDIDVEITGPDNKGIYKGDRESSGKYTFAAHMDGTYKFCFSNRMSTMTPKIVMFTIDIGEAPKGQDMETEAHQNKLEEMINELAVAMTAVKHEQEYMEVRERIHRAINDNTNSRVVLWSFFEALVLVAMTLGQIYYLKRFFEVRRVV
# UniProt O95379: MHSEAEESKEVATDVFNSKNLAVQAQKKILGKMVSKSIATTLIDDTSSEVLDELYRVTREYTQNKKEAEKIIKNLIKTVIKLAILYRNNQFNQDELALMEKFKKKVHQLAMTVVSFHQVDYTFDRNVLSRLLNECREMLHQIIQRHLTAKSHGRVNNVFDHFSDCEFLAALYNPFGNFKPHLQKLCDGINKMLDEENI
# UniProt Q6ZXV5: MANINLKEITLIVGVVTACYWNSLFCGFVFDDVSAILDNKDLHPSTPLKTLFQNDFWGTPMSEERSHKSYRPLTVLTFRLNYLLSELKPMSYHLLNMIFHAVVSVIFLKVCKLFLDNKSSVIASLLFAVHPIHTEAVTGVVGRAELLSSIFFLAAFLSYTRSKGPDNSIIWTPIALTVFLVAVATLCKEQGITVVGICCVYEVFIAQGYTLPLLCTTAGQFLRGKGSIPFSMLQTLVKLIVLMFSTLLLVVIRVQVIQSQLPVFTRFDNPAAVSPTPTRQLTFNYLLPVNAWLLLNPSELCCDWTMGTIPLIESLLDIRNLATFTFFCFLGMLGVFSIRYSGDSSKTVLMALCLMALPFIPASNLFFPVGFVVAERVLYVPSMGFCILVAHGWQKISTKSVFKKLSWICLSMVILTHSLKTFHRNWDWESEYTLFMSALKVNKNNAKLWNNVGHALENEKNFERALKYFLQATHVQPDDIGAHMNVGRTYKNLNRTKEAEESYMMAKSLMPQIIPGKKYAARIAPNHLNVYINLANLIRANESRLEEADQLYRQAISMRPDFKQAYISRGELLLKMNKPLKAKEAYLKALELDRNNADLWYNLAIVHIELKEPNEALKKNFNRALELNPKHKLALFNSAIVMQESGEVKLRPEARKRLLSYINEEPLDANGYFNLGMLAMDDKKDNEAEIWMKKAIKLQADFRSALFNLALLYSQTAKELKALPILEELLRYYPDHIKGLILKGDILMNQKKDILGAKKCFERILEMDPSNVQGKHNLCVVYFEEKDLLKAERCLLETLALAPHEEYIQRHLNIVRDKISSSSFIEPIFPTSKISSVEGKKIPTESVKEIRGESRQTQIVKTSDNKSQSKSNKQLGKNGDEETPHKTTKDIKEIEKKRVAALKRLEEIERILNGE
# UniProt Q9H0R3: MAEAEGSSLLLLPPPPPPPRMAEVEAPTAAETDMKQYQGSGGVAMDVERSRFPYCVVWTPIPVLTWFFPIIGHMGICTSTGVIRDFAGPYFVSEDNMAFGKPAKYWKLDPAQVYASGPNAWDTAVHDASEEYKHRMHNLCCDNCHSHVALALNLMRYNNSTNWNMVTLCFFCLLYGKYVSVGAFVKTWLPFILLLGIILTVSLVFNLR
# UniProt Q9BXJ8: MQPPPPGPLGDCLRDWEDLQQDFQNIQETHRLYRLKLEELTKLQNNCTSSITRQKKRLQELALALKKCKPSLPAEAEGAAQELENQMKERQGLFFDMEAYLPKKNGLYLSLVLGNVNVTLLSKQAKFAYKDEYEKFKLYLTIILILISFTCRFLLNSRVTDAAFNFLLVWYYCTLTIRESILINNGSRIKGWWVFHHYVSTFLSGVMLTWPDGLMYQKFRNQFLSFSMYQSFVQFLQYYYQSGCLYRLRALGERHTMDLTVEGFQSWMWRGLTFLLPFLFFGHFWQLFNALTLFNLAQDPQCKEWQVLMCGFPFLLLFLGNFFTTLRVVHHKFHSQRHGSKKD
# UniProt Q9H061: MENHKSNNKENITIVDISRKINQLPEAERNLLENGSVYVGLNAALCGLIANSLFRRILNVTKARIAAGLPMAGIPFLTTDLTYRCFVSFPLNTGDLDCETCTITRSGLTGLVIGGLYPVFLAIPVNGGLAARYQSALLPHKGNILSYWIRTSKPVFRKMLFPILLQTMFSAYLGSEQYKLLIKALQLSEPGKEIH
# Some of the results follow.
# Key:
# Experiment in all cases: log2 fold change, soluble protein after heating vs DMSO (PISA); higher = thermal stabilisation; K562 cells, 10 uM, 30 min; active = over 0.2 and 3.5 SD of the protein, either way, in both replicates (recomputed)
# [1] = compound: NC(=O)Nc1cc(-c2cccc(F)c2)sc1C(=O)N[C@H]1CCCNC1
# In short: (§1)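 K562 cells at 2×10^6 cells/mL were given 10 μM compound for 30 min. Aliquots then went through 3 min of heating across 48°C-58°C, were pooled, and were extracted in PBS with 0.5% NP-40 at 4°C, and the supernatant after 21,000xg for 90 min was quantified by TMTpro 16plex LC-MS/MS with channel sums equalised. Thermal stability relative to control samples, from duplicates, is given as log2 fold change.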
# [2] = compound: NC(=O)c1cnc(N[C@@H]2CCCC[C@@H]2N)nc1Nc1cccc(-n2nccn2)c1
# In short: as §1
# [3] = compound: NC1(c2ccc(-c3nc4ccn5c(=O)[nH]nc5c4cc3-c3ccccc3)cc2)CCC1
# In short: as §1
# [4] = compound: NCC(=O)Nc1ccc(-n2nc(C(F)(F)F)cc2-c2ccc3c(ccc4ccccc43)c2)cc1
# In short: as §1
# entinostat = compound: Nc1ccccc1NC(=O)c1ccc(CNC(=O)OCc2cccnc2)cc1 [entinostat]
# In short: as §1
# vorinostat = compound: O=C(CCCCCCC(=O)Nc1ccccc1)NO [vorinostat]
# In short: as §1
# citarinostat = compound: O=C(CCCCCCNC(=O)c1cnc(N(c2ccccc2)c2ccccc2Cl)nc1)NO [citarinostat]
# In short: as §1
# silmitasertib = compound: O=C(O)c1ccc2c(c1)nc(Nc1cccc(Cl)c1)c1ccncc12 [silmitasertib]
# In short: as §1
# [5] = compound: O=C1NC(=O)C(c2cnc3ccccn23)=C1c1cn2c3c(cc(F)cc13)CN(C(=O)N1CCCCC1)CC2
# In short: as §1
# [6] = compound: c1cc(OCCN2CCCCC2)cc(-c2n[nH]c3ccc(-c4nnc[nH]4)cc23)c1
# In short: as §1
Target,log2 fold change [1],log2 fold change [2],log2 fold change [3],log2 fold change [4],log2 fold change (entinostat),log2 fold change (vorinostat),log2 fold change (citarinostat),log2 fold change (silmitasertib),log2 fold change [5],log2 fold change [6]
TMED10 (UniProt P49755),inactive: -0.053,inactive: -0.047,inactive: -0.012,inactive: 0.035,inactive: -0.013,inactive: 0.021,inactive: -0.04,inactive: -0.021,inactive: -0.038,inactive: 0.006
TMEM185B (UniProt Q9H7F4),inactive: -0.041,inactive: -0.038,inactive: -0.04,inactive: -0.026,inactive: 0.04,inactive: -0.029,inactive: 0.147,inactive: 0.047,inactive: -0.017,inactive: 0.033
TMEM63B (UniProt Q5T3F8),inactive: 0.069,inactive: 0.059,inactive: -0.153,inactive: 0.052,inactive: 0.07,inactive: -0.008,inactive: -0.024,inactive: 0.001,inactive: -0.037,inactive: -0.021
TMEM161A (UniProt Q9NX61),inactive: 0.043,inactive: 0.012,inactive: -0.132,inactive: -0.101,inactive: 0.049,inactive: 0.006,inactive: 0.083,inactive: -0.023,inactive: -0.009,inactive: -0.098
TMEM65 (UniProt Q6PI78),inactive: -0.016,inactive: 0.043,inactive: 0.006,inactive: 0.009,inactive: -0.119,inactive: -0.032,inactive: -0.056,inactive: 0.066,inactive: -0.134,inactive: -0.075
TMA16 (UniProt Q96EY4),inactive: 0.101,inactive: 0.101,inactive: 0.214,inactive: 0.091,inactive: -0.134,inactive: -0.031,inactive: -0.066,inactive: 0.163,inactive: 0.149,inactive: -0.278
TM9SF3 (UniProt Q9HD45),inactive: 0.002,inactive: 0.012,inactive: -0.006,inactive: -0.066,inactive: -0.013,inactive: -0.038,inactive: -0.019,inactive: -0.076,inactive: 0.011,inactive: -0.015
TMEM38B (UniProt Q9NVV0),inactive: -0.073,inactive: -0.074,inactive: -0.001,inactive: -0.151,inactive: -0.041,inactive: -0.026,inactive: 0.033,inactive: 0.028,inactive: -0.011,inactive: -0.048
TMPO isoform 2 (UniProt P42167),inactive: 0.049,inactive: 0.008,inactive: 0.058,inactive: -0.078,inactive: -0.247,inactive: 0.22,inactive: 0.035,inactive: -0.005,inactive: -0.084,inactive: -0.016
TMEM62 (UniProt Q0P6H9),inactive: -0.033,inactive: -0.163,inactive: -0.104,inactive: -0.062,inactive: -0.142,inactive: 0.008,inactive: 0.042,inactive: -0.029,inactive: -0.009,inactive: -0.053
TMEM87A (UniProt Q8NBN3),inactive: -0.068,inactive: 0.014,inactive: -0.063,inactive: -0.033,inactive: -0.007,inactive: -0.01,inactive: 0.016,inactive: 0.04,inactive: -0.017,inactive: -0.014
TMEM109 (UniProt Q9BVC6),inactive: 0.006,inactive: -0.094,inactive: -0.001,inactive: -0.041,inactive: 0.016,inactive: -0.069,inactive: -0.047,inactive: -0.002,inactive: -0.039,inactive: 0.037
TMED1 (UniProt Q13445),inactive: 0.021,inactive: 0.113,inactive: -0.053,inactive: 0.022,inactive: 0.041,inactive: -0.041,inactive: 0.054,inactive: -0.001,inactive: -0.009,inactive: 0.068
TMX1 (UniProt Q9H3N1),inactive: -0.006,inactive: -0.008,inactive: -0.036,inactive: -0.026,inactive: -0.024,inactive: 0.015,inactive: -0.048,inactive: -0.006,inactive: -0.074,inactive: -0.029
TMOD2 (UniProt Q9NZR1),inactive: 0.05,inactive: 0.052,inactive: 0.138,inactive: 0.096,inactive: 0.067,inactive: 0.037,inactive: 0.056,inactive: -0.008,inactive: 0.003,inactive: 0.199
TMEM33 (UniProt P57088),inactive: -0.005,inactive: 0.005,inactive: -0.022,inactive: -0.019,inactive: 0.002,inactive: -0.006,inactive: 0.069,inactive: 0.013,inactive: 0.01,inactive: -0.085
TMEM161B (UniProt Q8NDZ6),inactive: -0.056,inactive: 0.029,inactive: -0.017,inactive: -0.073,inactive: 0.041,inactive: 0.097,inactive: 0.036,inactive: -0.011,inactive: 0.003,inactive: -0.03
TMED2 (UniProt Q15363),inactive: 0.007,inactive: 0.008,inactive: -0.067,inactive: -0.014,inactive: -0.009,inactive: -0.008,inactive: 0.054,inactive: 0.013,inactive: 0.003,inactive: -0.004
TMEM199 (UniProt Q8N511),inactive: 0.094,inactive: -0.064,inactive: -0.033,inactive: -0.075,inactive: 0.009,inactive: -0.066,inactive: 0.054,inactive: -0.032,inactive: -0.078,inactive: 0.123
TNFAIP8 isoform 4 (UniProt O95379),inactive: -0.032,inactive: -0.091,inactive: -0.061,inactive: 0.029,inactive: 0.018,active: 0.207,inactive: 0.012,inactive: 0.147,inactive: -0.073,inactive: 0.087
TMTC3 (UniProt Q6ZXV5),inactive: -0.028,inactive: -0.113,inactive: -0.135,inactive: -0.097,inactive: -0.046,inactive: 0.025,inactive: 0.005,inactive: 0.025,inactive: -0.037,inactive: -0.089
TLK2 isoform 2 (UniProt Q86UE8),inactive: -0.059,inactive: 0.049,inactive: -0.042,inactive: -0.037,inactive: 0.036,inactive: 0.1,inactive: 0.016,inactive: 0.034,inactive: -0.026,inactive: -0.052
TMEM222 (UniProt Q9H0R3),inactive: -0.011,inactive: 0.181,inactive: -0.102,inactive: -0.047,inactive: -0.027,inactive: -0.001,inactive: -0.043,inactive: 0.022,inactive: 0.015,inactive: -0.067
TMEM68 (UniProt Q96MH6),inactive: 0.125,inactive: 0.049,inactive: -0.021,inactive: 0.024,inactive: -0.026,inactive: -0.012,inactive: 0.027,inactive: 0.055,inactive: -0.028,inactive: -0.029
TMX2 (UniProt Q9Y320),inactive: -0.082,inactive: -0.117,inactive: -0.039,inactive: -0.064,inactive: 0.015,inactive: 0.018,inactive: 0.046,inactive: -0.002,inactive: -0.043,inactive: -0.04
TMEM120A (UniProt Q9BXJ8),inactive: 0.229,inactive: 0.089,inactive: 0.058,inactive: 0.091,inactive: 0.002,inactive: 0.1,inactive: 0.252,inactive: -0.124,inactive: 0.185,inactive: 0.082
TMEM126A (UniProt Q9H061),inactive: 0.007,inactive: -0.026,inactive: -0.043,inactive: -0.035,inactive: 0.036,inactive: 0.07,inactive: -0.038,inactive: -0.024,inactive: -0.08,inactive: 0.061

# Looked up one by one from above, 2 records:
Target,log2 fold change [1],log2 fold change [2],log2 fold change [3],log2 fold change [4],log2 fold change (entinostat),log2 fold change (vorinostat),log2 fold change (citarinostat),log2 fold change (silmitasertib),log2 fold change [5],log2 fold change [6]
TMED10 (UniProt P49755),inactive: -0.053,inactive: -0.047,inactive: -0.012,inactive: 0.035,inactive: -0.013,inactive: 0.021,inactive: -0.04,inactive: -0.021,inactive: -0.038,inactive: 0.006
TMX2 (UniProt Q9Y320),inactive: -0.082,inactive: -0.117,inactive: -0.039,inactive: -0.064,inactive: 0.015,inactive: 0.018,inactive: 0.046,inactive: -0.002,inactive: -0.043,inactive: -0.04
